Laboratory results published in paper PMC6254012.
No constants are given. Whether binding was seen depends on the method and setting. For some assays here: In cells and extracts the contact can be indirect. Some results given as binding are weak or reduced against the parent protein; the word gives no strength.

Chains of the proteins cited; added tags and fusions are not shown. Lines headed by an entry give the natural chain unless they say otherwise; changes in a name come on top. A line that says so, or that is headed by a name, gives the form on record, which may keep a tag or linker. Residues count along the entry.
UniProt Q9LND1: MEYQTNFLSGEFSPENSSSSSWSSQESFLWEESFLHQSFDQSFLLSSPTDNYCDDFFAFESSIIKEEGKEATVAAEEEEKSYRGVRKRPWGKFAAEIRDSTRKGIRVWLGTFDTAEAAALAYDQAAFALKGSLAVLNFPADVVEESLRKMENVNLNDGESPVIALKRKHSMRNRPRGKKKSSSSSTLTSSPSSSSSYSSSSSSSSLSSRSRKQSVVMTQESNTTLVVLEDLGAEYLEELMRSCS
ORA59 with N-terminal 60 amino acids deleted (ORA59Δ1-60), fused to the GAL4 activation domain: residues 61-244 of Q9LND1
UniProt P42736: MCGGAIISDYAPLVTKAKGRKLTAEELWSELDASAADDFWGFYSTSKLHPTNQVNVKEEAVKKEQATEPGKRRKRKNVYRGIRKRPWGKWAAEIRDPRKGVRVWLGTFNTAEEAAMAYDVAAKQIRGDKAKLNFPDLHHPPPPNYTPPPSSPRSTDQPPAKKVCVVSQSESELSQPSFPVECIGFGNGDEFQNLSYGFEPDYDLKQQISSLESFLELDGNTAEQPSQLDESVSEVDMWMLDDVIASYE

Legend:
[1] = target: ORA59 with N-terminal 60 amino acids deleted (ORA59Δ1-60), fused to the GAL4 activation domain (Arabidopsis thaliana) (UniProt Q9LND1); assay: two-hybrid; direct re-test; yeast strain AH109 co-transformed with pGADT7 and pGBKT7 constructs; growth on SD/-Ade-His-Leu-Trp and α-galactosidase activity with 40 mg/L X-α-Gal
[2] = target: ORA59 fused with the N-terminal part of YFP (ORA59^NE) (Arabidopsis thaliana) (UniProt Q9LND1); assay: split reporter; BiFC with split YFP (SPYNE, SPYCE) in transfected Arabidopsis protoplasts, 20-24 h expression; confocal microscopy

With “full-length RAP2.3 fused to the GAL4 DNA-binding domain (from UniProt P42736 1-248)” the binding [1] was “binds”.
With “RAP2.3 fused with the C-terminal part of YFP (RAP2.3^CE) (from UniProt P42736 1-248)” the binding [2] was “binds”.
